{"sequences": {"note": "Sequences of proteins named here, by UniProt entry; tags and fusion partners are left off. A change or cut given only in a name is not applied to a line headed by its entry.", "UniProt P67775": "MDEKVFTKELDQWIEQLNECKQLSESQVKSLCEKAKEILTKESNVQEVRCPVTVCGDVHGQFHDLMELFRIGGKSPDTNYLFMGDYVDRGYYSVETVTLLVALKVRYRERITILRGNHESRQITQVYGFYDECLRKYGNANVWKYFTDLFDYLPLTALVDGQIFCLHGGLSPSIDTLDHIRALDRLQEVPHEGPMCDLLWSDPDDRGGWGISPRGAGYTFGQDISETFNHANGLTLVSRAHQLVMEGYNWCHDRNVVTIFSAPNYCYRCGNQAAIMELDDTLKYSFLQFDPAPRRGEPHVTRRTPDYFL"}, "source": "paper PMC12724269", "assay_in_all_cases": "co-IP; ANKLE2-3XFLAG complexes immunoprecipitated from lysates of doxycycline-treated transduced HeLa cells on Dynabead Protein G beads conjugated to mouse anti-FLAG, overnight at 4°C; lysis buffer 50 mM Tris-HCl pH 7.4, 150 mM NaCl, 1% Triton X-100, protease and phosphatase inhibitors, nuclease; blots for PP2A and total BAF", "key": {"[1]": {"biological_target": "T1, full-length ANKLE2-3XFLAG (Ankyrin repeat and LEM domain-containing protein 2) (human) (UniProt Q86XL3)", "T1 sequence": "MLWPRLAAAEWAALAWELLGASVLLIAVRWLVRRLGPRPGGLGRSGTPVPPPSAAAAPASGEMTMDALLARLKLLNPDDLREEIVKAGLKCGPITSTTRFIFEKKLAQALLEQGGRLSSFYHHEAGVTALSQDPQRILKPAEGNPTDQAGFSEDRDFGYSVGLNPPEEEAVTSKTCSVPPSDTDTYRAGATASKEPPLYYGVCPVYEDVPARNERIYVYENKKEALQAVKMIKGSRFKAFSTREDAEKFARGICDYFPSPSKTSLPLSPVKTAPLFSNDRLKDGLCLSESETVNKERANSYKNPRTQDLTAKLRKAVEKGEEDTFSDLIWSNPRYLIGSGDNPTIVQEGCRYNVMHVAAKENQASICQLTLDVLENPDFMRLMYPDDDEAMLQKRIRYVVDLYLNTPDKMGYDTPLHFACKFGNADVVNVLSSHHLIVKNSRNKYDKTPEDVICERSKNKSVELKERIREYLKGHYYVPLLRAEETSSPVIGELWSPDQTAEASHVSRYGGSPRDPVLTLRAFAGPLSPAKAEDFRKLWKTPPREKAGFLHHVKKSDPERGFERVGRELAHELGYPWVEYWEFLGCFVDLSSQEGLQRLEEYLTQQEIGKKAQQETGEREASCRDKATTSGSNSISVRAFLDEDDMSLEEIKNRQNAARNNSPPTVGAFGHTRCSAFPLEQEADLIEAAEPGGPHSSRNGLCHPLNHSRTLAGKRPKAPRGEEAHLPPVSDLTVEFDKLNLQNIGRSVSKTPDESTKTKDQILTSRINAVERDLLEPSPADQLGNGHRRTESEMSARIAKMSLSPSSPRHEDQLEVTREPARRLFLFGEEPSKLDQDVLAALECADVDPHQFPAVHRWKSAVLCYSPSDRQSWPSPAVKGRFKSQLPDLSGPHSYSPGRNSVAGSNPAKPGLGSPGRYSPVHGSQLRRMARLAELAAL"}, "[2]": {"biological_target": "T2, Δ2-252-ANKLE2-3XFLAG (human) (UniProt Q86XL3)", "T2 sequence": "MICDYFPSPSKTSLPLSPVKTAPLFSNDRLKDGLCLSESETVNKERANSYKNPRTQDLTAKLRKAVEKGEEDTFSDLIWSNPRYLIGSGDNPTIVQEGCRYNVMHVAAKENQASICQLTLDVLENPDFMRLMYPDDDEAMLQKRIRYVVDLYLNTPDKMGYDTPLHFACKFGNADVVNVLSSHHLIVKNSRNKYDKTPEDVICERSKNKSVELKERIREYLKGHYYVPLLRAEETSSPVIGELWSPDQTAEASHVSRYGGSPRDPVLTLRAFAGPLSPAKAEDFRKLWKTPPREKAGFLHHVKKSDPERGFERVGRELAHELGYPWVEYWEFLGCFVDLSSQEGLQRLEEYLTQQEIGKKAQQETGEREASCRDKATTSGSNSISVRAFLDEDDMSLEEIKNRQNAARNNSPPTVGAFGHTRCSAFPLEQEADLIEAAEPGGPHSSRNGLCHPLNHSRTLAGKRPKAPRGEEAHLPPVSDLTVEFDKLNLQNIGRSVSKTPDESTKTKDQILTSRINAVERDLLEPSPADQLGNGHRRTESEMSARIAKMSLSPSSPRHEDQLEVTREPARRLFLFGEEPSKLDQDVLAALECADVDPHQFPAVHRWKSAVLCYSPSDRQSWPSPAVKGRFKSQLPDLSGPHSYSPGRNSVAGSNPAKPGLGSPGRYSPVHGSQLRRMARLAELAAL"}, "[3]": {"biological_target": "T3, Δ2-63-ANKLE2-3XFLAG (human) (UniProt Q86XL3)", "T3 sequence": "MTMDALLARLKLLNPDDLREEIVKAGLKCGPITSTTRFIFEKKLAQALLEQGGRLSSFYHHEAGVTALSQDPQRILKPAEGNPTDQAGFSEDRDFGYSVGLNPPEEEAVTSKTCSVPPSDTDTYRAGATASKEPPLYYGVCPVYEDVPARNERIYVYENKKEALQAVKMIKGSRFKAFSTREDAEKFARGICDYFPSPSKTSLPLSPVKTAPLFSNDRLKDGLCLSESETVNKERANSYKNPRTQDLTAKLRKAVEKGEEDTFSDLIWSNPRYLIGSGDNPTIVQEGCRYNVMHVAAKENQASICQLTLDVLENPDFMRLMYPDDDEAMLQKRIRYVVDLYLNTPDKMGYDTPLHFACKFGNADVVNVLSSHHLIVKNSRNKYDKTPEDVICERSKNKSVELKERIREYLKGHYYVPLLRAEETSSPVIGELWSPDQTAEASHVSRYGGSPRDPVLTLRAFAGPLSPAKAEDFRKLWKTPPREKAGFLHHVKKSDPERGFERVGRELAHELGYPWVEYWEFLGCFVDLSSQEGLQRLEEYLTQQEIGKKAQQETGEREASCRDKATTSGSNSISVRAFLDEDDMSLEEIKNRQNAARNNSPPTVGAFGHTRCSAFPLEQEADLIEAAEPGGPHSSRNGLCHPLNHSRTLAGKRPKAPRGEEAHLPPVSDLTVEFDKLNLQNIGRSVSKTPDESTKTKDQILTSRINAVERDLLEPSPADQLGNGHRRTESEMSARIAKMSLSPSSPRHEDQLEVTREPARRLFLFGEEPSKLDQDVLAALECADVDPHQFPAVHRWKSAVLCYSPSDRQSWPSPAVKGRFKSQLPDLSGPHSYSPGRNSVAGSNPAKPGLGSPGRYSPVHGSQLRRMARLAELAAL"}, "[4]": {"biological_target": "T4, Δ2-53-ANKLE2-3XFLAG (human) (UniProt Q86XL3)", "T4 sequence": "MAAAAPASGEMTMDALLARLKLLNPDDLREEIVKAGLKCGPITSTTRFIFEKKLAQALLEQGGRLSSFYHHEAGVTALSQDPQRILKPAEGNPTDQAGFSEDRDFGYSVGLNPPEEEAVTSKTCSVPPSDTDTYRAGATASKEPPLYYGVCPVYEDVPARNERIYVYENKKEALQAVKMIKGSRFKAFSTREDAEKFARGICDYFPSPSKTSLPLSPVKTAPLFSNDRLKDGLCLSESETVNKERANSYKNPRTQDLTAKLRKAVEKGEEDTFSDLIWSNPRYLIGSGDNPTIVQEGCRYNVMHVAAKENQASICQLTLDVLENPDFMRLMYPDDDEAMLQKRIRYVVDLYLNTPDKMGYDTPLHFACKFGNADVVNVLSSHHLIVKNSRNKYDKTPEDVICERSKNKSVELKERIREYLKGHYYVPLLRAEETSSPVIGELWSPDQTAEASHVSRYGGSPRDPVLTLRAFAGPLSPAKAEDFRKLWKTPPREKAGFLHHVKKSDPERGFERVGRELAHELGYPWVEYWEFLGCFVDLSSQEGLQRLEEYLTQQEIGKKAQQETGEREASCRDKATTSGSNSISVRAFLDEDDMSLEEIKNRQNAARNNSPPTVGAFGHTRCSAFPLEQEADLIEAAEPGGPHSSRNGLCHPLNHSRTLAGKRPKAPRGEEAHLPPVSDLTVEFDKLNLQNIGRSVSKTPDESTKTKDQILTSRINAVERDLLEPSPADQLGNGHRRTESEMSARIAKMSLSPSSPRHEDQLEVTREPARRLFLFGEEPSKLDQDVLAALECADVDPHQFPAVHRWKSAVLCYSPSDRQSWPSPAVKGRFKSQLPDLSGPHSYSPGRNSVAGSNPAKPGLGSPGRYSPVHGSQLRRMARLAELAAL"}, "[5]": {"biological_target": "T5, Δ2-117-ANKLE2-3XFLAG (human) (UniProt Q86XL3)", "T5 sequence": "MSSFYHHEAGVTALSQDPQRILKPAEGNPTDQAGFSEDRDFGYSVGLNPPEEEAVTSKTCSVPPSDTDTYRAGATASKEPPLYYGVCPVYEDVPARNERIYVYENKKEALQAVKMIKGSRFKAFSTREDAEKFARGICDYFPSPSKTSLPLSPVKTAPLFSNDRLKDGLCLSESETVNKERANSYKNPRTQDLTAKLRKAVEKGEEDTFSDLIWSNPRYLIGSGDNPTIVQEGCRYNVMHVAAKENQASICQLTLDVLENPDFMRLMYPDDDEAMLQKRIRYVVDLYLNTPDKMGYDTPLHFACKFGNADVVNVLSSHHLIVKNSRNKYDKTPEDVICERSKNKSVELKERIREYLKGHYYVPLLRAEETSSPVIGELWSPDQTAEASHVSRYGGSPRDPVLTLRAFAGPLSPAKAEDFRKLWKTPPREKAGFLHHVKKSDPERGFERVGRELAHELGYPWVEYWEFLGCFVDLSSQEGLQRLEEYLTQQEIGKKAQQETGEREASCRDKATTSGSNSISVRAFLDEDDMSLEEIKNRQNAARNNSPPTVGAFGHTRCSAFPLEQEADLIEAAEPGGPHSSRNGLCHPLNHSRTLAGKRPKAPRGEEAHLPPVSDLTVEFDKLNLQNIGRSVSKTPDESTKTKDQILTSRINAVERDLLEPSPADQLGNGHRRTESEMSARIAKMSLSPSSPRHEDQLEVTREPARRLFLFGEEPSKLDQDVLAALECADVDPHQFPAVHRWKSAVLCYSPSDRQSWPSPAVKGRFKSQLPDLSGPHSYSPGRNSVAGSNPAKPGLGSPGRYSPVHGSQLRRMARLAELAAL"}}, "note": "These are yes or no findings as the source states them, for the method shown. Binding seen in cells or lysates may run through a third protein. For some assays here: Binding can be weak; no strength is given. Where a sequence is shown, tags or fusion partners need not be part of it."}
{"substance": "serine/threonine protein phosphatase 2A (PP2A) (from UniProt P67775) (enzyme)", "values": [{"measurement": "binding", "setting": "[1]", "result": "binds"}, {"measurement": "binding", "setting": "[2]", "result": "no binding"}, {"measurement": "binding", "setting": "[3]", "result": "binds"}, {"measurement": "binding", "setting": "[4]", "result": "binds"}, {"measurement": "binding", "setting": "[5]", "result": "binds"}]}
